Measurements reported in PubChem BioAssay AID743454 (Peter MacCallum Cancer Centre, 2014).
Purpose: 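Genes whose loss kills vorinostat-resistant colon cancer cells under vorinostat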 (primary screen). System: human HCT116-VR colon cancer cells, selected for vorinostat resistance. Reagents: siRNA pool against human genes, 40 nM siRNA pool. Time to read-out: vorinostat for 24 h, read-out about 72 h after transfection. Challenge: vorinostat at 2.5 µM final. Detection: 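Two measures, CellTiter-Fluor viability and luminescent caspase 3/7 activity, each as fold change against same-plate mock wells, mean of duplicates, then screen-wide robust z-score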. Reading the numbers: viability robust z-score: higher = more viable cells than screen typical; caspase robust z-score: higher = more caspase 3/7 activity than screen typical. Rule for the call: 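a knock-down is a hit when classed RV1 or RV2 for lowered viability, or CA1 or CA2 for caspase activation; those lethal without drug were dropped; hits were retested singly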.
Shown is one part, drawn at random, of about 18,000 reagents. Of all reagents, 450 (2.5%) were called active. 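Single biological run; no consistent viability z cut-off exists, so the class columns, not z-scores, define the calls.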 Unmarked entries are inactive. No sequences are given here.

The first 2 records, ahead of the listing:
MLX → viability hit class = no change; caspase hit class = no change; viability robust z-score = -1.42; caspase robust z-score = 0.6
TMEM161A → viability hit class = no change; caspase hit class = no change; viability robust z-score = -0.32; caspase robust z-score = 2.06

Main list, from the first entry:
MLX → viability hit class = no change; caspase hit class = no change; viability robust z-score = -1.42; caspase robust z-score = 0.6
TMEM161A → viability hit class = no change; caspase hit class = no change; viability robust z-score = -0.32; caspase robust z-score = 2.06
LTA4H → viability hit class = no change; caspase hit class = no change; viability robust z-score = 0.2; caspase robust z-score = 1.23
DCLRE1C → viability hit class = no change; caspase hit class = no change; viability robust z-score = 0.14; caspase robust z-score = 0.49
GPATCH11 → viability hit class = no change; caspase hit class = no change; viability robust z-score = -0.63; caspase robust z-score = -0.38
FAS → viability hit class = no change; caspase hit class = no change; viability robust z-score = -0.93; caspase robust z-score = 4.42
ZZEF1 → viability hit class = no change; caspase hit class = no change; viability robust z-score = 1.02; caspase robust z-score = 1.44
ADA → viability hit class = no change; caspase hit class = no change; viability robust z-score = -0.52; caspase robust z-score = 0.22
RNF149 → viability hit class = no change; caspase hit class = no change; viability robust z-score = 0.38; caspase robust z-score = 0.63
PAICS → viability hit class = no change; caspase hit class = no change; viability robust z-score = 0.69; caspase robust z-score = 2.4
PTPN21 → viability hit class = no change; caspase hit class = no change; viability robust z-score = -0.09; caspase robust z-score = -0.25
BLOC1S6 → viability hit class = no change; caspase hit class = no change; viability robust z-score = 0.89; caspase robust z-score = -0.78
KRT17 → viability hit class = no change; caspase hit class = no change; viability robust z-score = -0.92; caspase robust z-score = -0.4
STPG3 → viability hit class = no change; caspase hit class = no change; viability robust z-score = -1.82; caspase robust z-score = 1.66
TLR10 → viability hit class = no change; caspase hit class = no change; viability robust z-score = -0.93; caspase robust z-score = 0.02
UBR4 → viability hit class = no change; caspase hit class = no change; viability robust z-score = -1.64; caspase robust z-score = 1.03
SLC25A40 → viability hit class = no change; caspase hit class = no change; viability robust z-score = -0.14; caspase robust z-score = 0.16
SPTSSB → viability hit class = no change; caspase hit class = no change; viability robust z-score = -0.44; caspase robust z-score = -1.29
TMEM63C → viability hit class = no change; caspase hit class = no change; viability robust z-score = -0.92; caspase robust z-score = 0.88
SRPK2 → viability hit class = no change; caspase hit class = no change; viability robust z-score = 1.16; caspase robust z-score = -0.72
CDK19 → viability hit class = no change; caspase hit class = no change; viability robust z-score = -0.34; caspase robust z-score = -0.8
